Source: US20070009537A1, “Antimicrobial activity of antibodies producing reactive oxygen species” (priority 2002, published 2007)

Assay: Oxidation of indigo carmine 1 and 18O incorporation into cyclic α-ketoamide 2 by reactive oxygen species

O=[O+][O-] [Clone O3, ozone]
18O incorporation into 2 (PB 100 mM pH 7.4 with H2 18O (>95%), negative ion ESI-MS): yes
Reaction to form 2 (indigo carmine 1 (1 mM) in PB pH 7.4, room temperature, oxidant conditions per footnotes): Yes
